Compound in the test: Nc1nc2c(ncn2[C@@H]2O[C@H](COP(=O)(O)OP(=O)(O)OP(=O)(O)O)[C@@H](O)[C@H]2O)c(=O)[nH]1 [guanosine triphosphate]
The test is described as follows: NP40-soluble protein abundance relative to vehicle (solubility fold change) (ratio); higher = more soluble protein in presence of GTP. The method, then:
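Solubility proteome profiling in Jurkat crude lysate. Lysate was treated with Mg-GTP (0.1-10 mM) for 10 min at room temperature and 3 min at 37 °C, then solubilised with 0.8% NP40 and benzonase, followed by ultracentrifugation. Proteins were quantified by TMT10 LC-MS/MS; the value is the NP40-soluble abundance relative to the NP40-processed vehicle, from 3 independent experiments.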

Sequences of proteins named here, by UniProt entry; tags and fusion partners are left off. A change or cut given only in a name is not applied to a line headed by its entry.
UniProt O75153: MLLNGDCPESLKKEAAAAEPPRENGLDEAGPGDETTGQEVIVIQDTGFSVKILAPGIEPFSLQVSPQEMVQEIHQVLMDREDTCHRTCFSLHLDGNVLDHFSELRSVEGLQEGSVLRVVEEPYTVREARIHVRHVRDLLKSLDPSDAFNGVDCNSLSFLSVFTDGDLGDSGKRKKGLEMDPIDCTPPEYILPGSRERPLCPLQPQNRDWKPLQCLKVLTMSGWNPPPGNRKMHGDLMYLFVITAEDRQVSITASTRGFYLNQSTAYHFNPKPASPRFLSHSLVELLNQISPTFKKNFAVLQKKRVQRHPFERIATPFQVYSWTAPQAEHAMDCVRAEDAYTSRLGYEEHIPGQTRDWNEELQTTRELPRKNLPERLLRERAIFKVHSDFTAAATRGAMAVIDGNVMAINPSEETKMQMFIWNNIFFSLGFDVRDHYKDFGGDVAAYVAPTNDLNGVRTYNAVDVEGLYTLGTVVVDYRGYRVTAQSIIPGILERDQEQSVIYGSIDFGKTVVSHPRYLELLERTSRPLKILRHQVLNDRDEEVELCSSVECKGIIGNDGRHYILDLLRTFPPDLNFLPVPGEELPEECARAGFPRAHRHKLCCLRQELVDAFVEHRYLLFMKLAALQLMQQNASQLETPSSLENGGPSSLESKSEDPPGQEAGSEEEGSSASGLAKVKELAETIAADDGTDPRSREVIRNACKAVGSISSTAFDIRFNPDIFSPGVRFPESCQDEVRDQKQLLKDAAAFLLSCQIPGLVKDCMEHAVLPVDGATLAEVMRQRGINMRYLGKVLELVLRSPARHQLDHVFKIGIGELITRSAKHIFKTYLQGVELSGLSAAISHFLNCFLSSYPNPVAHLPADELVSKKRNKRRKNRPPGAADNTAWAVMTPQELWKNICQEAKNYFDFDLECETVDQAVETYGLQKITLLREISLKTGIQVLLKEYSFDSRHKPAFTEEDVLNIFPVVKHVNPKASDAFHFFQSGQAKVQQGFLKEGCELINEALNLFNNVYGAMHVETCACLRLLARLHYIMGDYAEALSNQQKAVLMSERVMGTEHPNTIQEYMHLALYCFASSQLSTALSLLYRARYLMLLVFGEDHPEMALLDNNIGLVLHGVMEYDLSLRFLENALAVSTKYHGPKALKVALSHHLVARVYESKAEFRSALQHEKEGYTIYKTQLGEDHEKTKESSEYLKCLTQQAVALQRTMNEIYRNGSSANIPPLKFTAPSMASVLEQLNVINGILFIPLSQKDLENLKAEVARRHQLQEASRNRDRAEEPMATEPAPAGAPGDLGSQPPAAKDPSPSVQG
UniProt O75494: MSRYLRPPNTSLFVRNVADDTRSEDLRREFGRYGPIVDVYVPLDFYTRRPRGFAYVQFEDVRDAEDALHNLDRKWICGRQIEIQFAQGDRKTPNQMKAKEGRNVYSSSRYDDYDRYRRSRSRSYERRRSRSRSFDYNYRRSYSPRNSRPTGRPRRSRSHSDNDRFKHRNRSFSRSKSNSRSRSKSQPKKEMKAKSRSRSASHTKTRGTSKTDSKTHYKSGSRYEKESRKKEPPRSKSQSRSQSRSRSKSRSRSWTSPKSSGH
UniProt P06753, whole entry: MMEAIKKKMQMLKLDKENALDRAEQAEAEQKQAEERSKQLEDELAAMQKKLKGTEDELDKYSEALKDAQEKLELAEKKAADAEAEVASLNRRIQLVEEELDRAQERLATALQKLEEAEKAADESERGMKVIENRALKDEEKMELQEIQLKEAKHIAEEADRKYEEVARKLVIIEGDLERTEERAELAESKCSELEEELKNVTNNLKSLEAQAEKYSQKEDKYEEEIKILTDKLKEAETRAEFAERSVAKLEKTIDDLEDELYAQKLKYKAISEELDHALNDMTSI
UniProt O95400: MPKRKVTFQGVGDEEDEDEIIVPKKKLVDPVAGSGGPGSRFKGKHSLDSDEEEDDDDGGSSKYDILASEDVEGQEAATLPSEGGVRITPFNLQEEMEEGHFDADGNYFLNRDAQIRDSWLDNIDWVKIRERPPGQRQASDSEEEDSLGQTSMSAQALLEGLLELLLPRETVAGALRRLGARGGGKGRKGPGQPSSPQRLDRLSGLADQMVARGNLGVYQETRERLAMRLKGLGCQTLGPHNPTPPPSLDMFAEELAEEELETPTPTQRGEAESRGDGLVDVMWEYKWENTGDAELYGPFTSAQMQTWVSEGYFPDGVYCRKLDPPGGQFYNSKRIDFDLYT
UniProt O75937: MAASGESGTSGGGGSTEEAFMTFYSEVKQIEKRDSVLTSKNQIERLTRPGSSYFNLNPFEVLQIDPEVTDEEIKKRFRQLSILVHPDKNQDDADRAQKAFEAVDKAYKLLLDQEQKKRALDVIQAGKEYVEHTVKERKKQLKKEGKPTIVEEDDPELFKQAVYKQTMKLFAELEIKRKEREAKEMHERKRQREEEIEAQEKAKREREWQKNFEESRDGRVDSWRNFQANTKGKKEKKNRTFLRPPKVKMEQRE

± gives the standard deviation of the averaged measurements. Some of the results follow.

Turning to UniProt O75153 and related entries, the NP40-soluble protein abundance (concentration: 0.1mM) was determined as 1.04 ± 0.021; the NP40-soluble protein abundance (concentration: 0.5mM) was 1.04 ± 0.037; the NP40-soluble protein abundance (concentration: 1mM) is 0.991 ± 0.036; the NP40-soluble protein abundance (concentration: 2mM) turned out to be 0.994 ± 0.04; the NP40-soluble protein abundance (concentration: 4mM) is 0.976 ± 0.045; the NP40-soluble protein abundance (concentration: 6mM) worked out at 0.954 ± 0.036. Moreover, the NP40-soluble protein abundance was determined as 0.944 ± 0.047 (concentration: 8mM) and 0.933 ± 0.046 (concentration: 10mM).

As for UniProt O75494 and related entries, the NP40-soluble protein abundance by setting is: (concentration: 0.1mM) 1.01 ± 0.049; (concentration: 0.5mM) 1.1 ± 0.043; (concentration: 1mM) 1.17 ± 0.081; (concentration: 2mM) 1.18 ± 0.095; (concentration: 4mM) 1.17 ± 0.11; (concentration: 6mM) 1.16 ± 0.11. Besides, the NP40-soluble protein abundance is, setting by setting: (concentration: 8mM) 1.17 ± 0.11; (concentration: 10mM) 1.22 ± 0.14.

As for UniProt P06753-2|P06753-6|P06753-5, the NP40-soluble protein abundance came to 0.859 ± 0.19 (concentration: 0.1mM); 0.696 ± 0.082 (concentration: 0.5mM); 1.46 ± 0.37 (concentration: 1mM); 1.22 ± 0.22 (concentration: 2mM); 1.21 ± 0.26 (concentration: 4mM); 1.16 ± 0.14 (concentration: 6mM). Moreover, the NP40-soluble protein abundance runs as follows: (concentration: 8mM) 0.989 ± 0.24; (concentration: 10mM) 1.36 ± 0.31.

CD2BP2 (UniProt O95400): the NP40-soluble protein abundance is, setting by setting: (concentration: 0.1mM) 0.913 ± 0.046; (concentration: 0.5mM) 0.959 ± 0.039; (concentration: 1mM) 1.04 ± 0.024; (concentration: 2mM) 1.07 ± 0.049; (concentration: 4mM) 1.17 ± 0.12; (concentration: 6mM) 1.27 ± 0.099. Further, the NP40-soluble protein abundance is, setting by setting: (concentration: 8mM) 1.38 ± 0.16; (concentration: 10mM) 1.51 ± 0.24.

For DNAJC8 (UniProt O75937), the NP40-soluble protein abundance by setting is: (concentration: 0.1mM) 0.838 ± 0.14; (concentration: 0.5mM) 0.801 ± 0.056; (concentration: 1mM) 1.1 ± 0.17; (concentration: 2mM) 1.09 ± 0.056; (concentration: 4mM) 1.08 ± 0.14; (concentration: 6mM) 1.14 ± 0.12. Also, the NP40-soluble protein abundance was determined as 1.05 ± 0.21 (concentration: 8mM) and 1.3 ± 0.25 (concentration: 10mM).

The record behind these values is the supplement of paper PMC6411743.
